Consider two substances from US8071535B2 (The Regents of the University of California, priority 2003, dated 2011).

Data set [1] can be described thus: general procedure: Fmoc solid-phase peptide synthesis; Fmoc PAL PEG PS resin (PerSeptive Biosystems). To be noted: conjugation step, 1H NMR, trifluoroacetic acid salt (peptide); hydrochloride (conjugate).
A short description of data set [2]: general procedure: Fmoc solid-phase peptide synthesis; Fmoc PAL PEG PS resin. The settings on record: whole synthesis, scale 0.15 mmole, TFA salt.

For “BODIPY-Cys(Arg)9 hydrochloride (CRRRRRRRRR; N-acetyl, C-amide, BODIPY on Cys)”, the “final purity (method not given)” value in data set [1] is on record as “better than 95%”.

Turning to ace-CRRRRRRRRR-am trifluoroacetic acid, in data set [2], the isolated mass was 40 mg and the isolated yield is listed as 10%.
